In PMC2923182:
No constants are given. Whether binding was seen depends on the method and setting. For part of these data: Binding seen in cells or lysates may run through a third protein. Some binding calls cover weakened binding; strength is not graded here.

Sequences of proteins named here, by UniProt entry; tags and fusion partners are left off. Residues count along the entry.
UniProt P13500, residues 24-99: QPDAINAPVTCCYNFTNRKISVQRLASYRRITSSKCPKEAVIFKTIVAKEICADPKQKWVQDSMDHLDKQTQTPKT
UniProt P21333: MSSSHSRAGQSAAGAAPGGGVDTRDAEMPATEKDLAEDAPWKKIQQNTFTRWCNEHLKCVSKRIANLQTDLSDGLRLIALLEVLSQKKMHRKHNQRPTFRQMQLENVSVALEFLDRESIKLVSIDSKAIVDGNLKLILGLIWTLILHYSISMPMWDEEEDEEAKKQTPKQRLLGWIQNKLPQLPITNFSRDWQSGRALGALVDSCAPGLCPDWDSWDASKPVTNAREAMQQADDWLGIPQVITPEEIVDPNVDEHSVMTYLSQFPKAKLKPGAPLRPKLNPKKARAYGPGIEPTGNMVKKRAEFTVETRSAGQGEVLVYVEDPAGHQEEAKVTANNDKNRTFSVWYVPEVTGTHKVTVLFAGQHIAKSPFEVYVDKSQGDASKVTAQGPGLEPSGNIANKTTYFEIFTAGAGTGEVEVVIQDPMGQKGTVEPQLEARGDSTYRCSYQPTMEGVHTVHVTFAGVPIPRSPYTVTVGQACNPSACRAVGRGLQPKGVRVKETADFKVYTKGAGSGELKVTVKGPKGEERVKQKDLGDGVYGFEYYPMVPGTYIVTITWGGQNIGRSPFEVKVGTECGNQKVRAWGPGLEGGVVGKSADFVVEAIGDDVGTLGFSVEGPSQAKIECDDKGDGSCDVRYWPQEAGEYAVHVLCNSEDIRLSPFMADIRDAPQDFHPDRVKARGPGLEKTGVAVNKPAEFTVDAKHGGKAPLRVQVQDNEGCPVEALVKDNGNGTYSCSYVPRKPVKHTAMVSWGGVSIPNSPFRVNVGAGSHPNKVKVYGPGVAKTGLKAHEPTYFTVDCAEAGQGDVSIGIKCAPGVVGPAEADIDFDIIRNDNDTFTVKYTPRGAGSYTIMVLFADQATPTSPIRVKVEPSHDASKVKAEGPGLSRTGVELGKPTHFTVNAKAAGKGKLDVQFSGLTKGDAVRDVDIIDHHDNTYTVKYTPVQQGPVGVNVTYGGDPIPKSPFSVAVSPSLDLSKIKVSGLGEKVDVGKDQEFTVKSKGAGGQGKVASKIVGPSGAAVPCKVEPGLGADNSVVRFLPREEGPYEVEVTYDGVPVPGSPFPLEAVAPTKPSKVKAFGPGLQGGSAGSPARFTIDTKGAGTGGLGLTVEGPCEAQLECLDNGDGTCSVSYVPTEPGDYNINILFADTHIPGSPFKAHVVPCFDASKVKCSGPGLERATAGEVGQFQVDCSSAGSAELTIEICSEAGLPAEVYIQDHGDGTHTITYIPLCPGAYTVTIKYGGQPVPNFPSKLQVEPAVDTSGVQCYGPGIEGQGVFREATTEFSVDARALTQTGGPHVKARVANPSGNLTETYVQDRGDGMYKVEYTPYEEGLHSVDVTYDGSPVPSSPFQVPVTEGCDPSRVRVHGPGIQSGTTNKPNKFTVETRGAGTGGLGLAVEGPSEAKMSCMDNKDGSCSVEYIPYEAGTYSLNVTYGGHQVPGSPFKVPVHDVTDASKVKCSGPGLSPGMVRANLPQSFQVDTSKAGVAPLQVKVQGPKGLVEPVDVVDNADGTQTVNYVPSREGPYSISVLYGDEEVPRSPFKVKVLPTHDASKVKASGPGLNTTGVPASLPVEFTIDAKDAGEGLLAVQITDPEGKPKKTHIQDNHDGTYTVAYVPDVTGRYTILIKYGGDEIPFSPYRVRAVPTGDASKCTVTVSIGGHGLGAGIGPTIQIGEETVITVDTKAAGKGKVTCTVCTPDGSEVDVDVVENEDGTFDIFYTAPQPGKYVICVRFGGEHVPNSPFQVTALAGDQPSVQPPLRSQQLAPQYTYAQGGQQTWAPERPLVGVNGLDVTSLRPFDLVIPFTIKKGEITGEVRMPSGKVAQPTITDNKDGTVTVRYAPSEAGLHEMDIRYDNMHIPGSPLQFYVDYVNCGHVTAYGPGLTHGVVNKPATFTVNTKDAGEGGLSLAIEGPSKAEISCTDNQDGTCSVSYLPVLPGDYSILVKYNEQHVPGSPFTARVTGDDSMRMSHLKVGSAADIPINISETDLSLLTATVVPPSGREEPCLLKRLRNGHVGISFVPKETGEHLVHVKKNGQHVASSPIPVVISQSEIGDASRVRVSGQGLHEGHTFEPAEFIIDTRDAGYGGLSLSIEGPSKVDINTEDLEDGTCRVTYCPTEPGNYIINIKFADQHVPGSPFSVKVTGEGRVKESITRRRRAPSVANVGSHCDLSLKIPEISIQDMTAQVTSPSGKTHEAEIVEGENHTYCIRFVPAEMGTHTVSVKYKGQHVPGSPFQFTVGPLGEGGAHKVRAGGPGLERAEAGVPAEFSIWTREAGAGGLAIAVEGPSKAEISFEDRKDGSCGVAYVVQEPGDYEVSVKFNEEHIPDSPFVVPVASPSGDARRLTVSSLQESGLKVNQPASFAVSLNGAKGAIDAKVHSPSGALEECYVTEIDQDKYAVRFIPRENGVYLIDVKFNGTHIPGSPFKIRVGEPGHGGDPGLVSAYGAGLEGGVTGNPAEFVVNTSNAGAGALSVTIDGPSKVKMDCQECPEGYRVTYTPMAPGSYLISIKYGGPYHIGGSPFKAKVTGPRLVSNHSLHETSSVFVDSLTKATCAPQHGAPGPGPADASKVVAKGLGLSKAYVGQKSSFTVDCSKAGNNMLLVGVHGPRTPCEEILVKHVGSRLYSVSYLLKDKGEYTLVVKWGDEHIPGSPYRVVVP

Tests used:
[1] = target: FLAG-CCR2B on M2 cells (FLNa-deficient) (UniProt P41597); experiment: radioligand binding; whole M2 cells (FLNa-deficient) transfected with CCR2B; 50 000 cpm 125I-Human MCP-1 alone or with unlabelled peptide (10^-11 M and 10^-5 M), 4°C for 5 h; only the binder purified
[2] = target: FLAG-CCR2B on A7 cells (FLNa present) (UniProt P41597); experiment: radioligand binding; whole A7 cells (FLNa present) transfected with CCR2B; 50 000 cpm 125I-Human MCP-1 alone or with unlabelled peptide (10^-11 M and 10^-5 M), 4°C for 5 h; only the binder purified
[3] = target: FLAG-CCR2B, full length, in HEK293 cells (pcDNA3-FLAG-CCR2B) (UniProt P41597); experiment: co-IP; HEK293 transfected with pcDNA3-FLAG-CCR2B; 1% Brij 96 V lysis buffer; M2 anti-FLAG on Protein G-Sepharose, 4°C overnight; blot with anti-filamin 1

| binding [1] | binding [2] | binding [3] | Substance |
| --- | --- | --- | --- |
| binds | binds | – | 125I-Human MCP-1 (CCL2) (from UniProt P13500 24-99) (ligand) |
| – | – | binds | Filamin A, endogenous in HEK293 cells (from UniProt P21333 1-2647) |
